The text below walks through data of US20060148732A1, “Inhibition of NF-kappaB by triterpene compositions” (priority 2000, published 2006).

Marks after values point to notes of the source that are not given here.

One series relates to Acacia victoriae. Description: Multiple shoot induction from shoot tips. As to conditions: MS medium; 1.3 mg/L.
Series [1] concerns Acacia victoriae hairy roots. Description: Growth of hairy root cultures in liquid medium. As to conditions: for Fresh weight after 4 weeks / Fold increase: initial F.W. 300 mg; for Fold increase: 4 weeks.
Setting [2] is: Carbon source 2% W/V in MS medium.

Take `c1ccc(CNc2ncnc3[nH]cnc23)cc1` [BA]: in the series on Acacia victoriae, the “shoots/culture (average)” value is given as 3.94.

On to `C=C1C[C@]23C[C@@]1(O)CC[C@H]2[C@@]12C=C[C@H](O)[C@@](C)(C(=O)O1)[C@H]2[C@@H]3C(=O)O` [GA3, gibberellic acid], for which the “growth of hairy roots” value in series [1] (0.1, 0.5 and 1.0 mg/L in MS medium) is listed as “did not enhance the growth”. In addition, the “Fresh weight after 4 weeks” value in series [1] (GA3 0.1 mg/L) amounted to 4.732 ± 0.086 gm; in series [1] (GA3 0.5 mg/L), 4.634 ± 0.088 gm; in series [1] (GA3 1 mg/L) it was 4.310 ± 0.344 gm. Moreover, the Fold increase in series [1] (GA3 0.1 mg/L) was determined as 15.77; in series [1] (GA3 0.5 mg/L) it was 15.44; in series [1] (GA3 1 mg/L) it was 15.44.

For the compound `OC[C@H]1O[C@@](CO)(O[C@H]2O[C@H](CO)[C@@H](O)[C@H](O)[C@H]2O)[C@@H](O)[C@@H]1O` [sucrose], the “growth of hairy roots” value in series [1] (2% (w/v) carbon source in MS medium) was 24.52 fold. Also, in series [1] (setting [2]), the “Fresh weight after 4 weeks” value is 7.356 ± 0.543^c gm and the Fold increase was 24.52.
